PubChem BioAssay AID1224826 | NIAID | 2016

Purpose: 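Genes that change LPS-induced Tnf promoter activity in mouse macrophages when knocked down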 (primary screen)
System: RAW264.7 G9 macrophages from mouse bearing reporters for p65 (GFP) and the Tnf promoter (mCherry)
Knock-down reagent: siRNA pool against mouse genes, 100 nM
Duration: 16 h of LPS stimulation, after 2 days of siRNA transfection
Challenge: bacterial lipopolysaccharide (Salmonella minnesota R595), 10 ng/ml
Read-out: 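Nuclear mCherry signal of the Tnf promoter reporter measured by imaging after background removal, scaled to each plate median and turned into robust z-scores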
Reading the numbers: Tnf reporter robust z-score: higher = stronger Tnf promoter reporter signal after LPS
Rule for the call: 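Called active when robust z-score is at most -1.3, matching the median of the Tlr4 knock-down control, or over 3; control wells and wells with under 50 cells never active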
Meaning of the calls: active = Tnf reporter clearly lowered or raised; inactive = no clear change in Tnf reporter
Here is one part, drawn at random, of about 17,000 reagents tested. About 1,110 of all reagents (6.6%) were called active. 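Active means lowered or raised reporter signal; replicate intensities are raw and not normalised per plate.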 Further read-outs or replicates are left out here.

Kap → Tnf reporter robust z-score: 1.34; fewer than 50 cells in well: enough cells in well; Call: inactive
Tcf21 → Tnf reporter robust z-score: -0.79; fewer than 50 cells in well: enough cells in well; Call: inactive
Cd53 → Tnf reporter robust z-score: 0.04; fewer than 50 cells in well: enough cells in well; Call: inactive
Zic5 → Tnf reporter robust z-score: 1.75; fewer than 50 cells in well: enough cells in well; Call: inactive
Hectd2 → Tnf reporter robust z-score: -0.82; fewer than 50 cells in well: enough cells in well; Call: inactive
Atp6ap2 → Tnf reporter robust z-score: -0.86; fewer than 50 cells in well: enough cells in well; Call: inactive
Tmem106b → fewer than 50 cells in well: fewer than 50 cells per well; well left out of calls; Call: inactive

Reformatted: entries from further up.
Hectd2
- Tnf reporter robust z-score: -0.82
- fewer than 50 cells in well: enough cells in well
- Call: inactive

Atp6ap2
- Tnf reporter robust z-score: -0.86
- fewer than 50 cells in well: enough cells in well
- Call: inactive

Tmem106b
- fewer than 50 cells in well: fewer than 50 cells per well; well left out of calls
- Call: inactive

Additional reagents follow.
Foxa2 → Tnf reporter robust z-score: -0.04; fewer than 50 cells in well: enough cells in well; Call: inactive
Grm3 → Tnf reporter robust z-score: -0.96; fewer than 50 cells in well: enough cells in well; Call: inactive
Lkaaear1 → Tnf reporter robust z-score: 1.36; fewer than 50 cells in well: enough cells in well; Call: inactive
Mcm5 → Tnf reporter robust z-score: 1.58; fewer than 50 cells in well: enough cells in well; Call: inactive
Parva → Tnf reporter robust z-score: 1.5; fewer than 50 cells in well: enough cells in well; Call: inactive
Dmkn → Tnf reporter robust z-score: 0.12; fewer than 50 cells in well: enough cells in well; Call: inactive
Mael → Tnf reporter robust z-score: -1.1; fewer than 50 cells in well: enough cells in well; Call: inactive
Selenbp1 → Tnf reporter robust z-score: -0.57; fewer than 50 cells in well: enough cells in well; Call: inactive
Gpr183 → Tnf reporter robust z-score: 0.04; fewer than 50 cells in well: enough cells in well; Call: inactive
Rbm4b → Tnf reporter robust z-score: 2.64; fewer than 50 cells in well: enough cells in well; Call: inactive
Lamtor1 → fewer than 50 cells in well: fewer than 50 cells per well; well left out of calls; Call: inactive
Scrib → Tnf reporter robust z-score: -0.68; fewer than 50 cells in well: enough cells in well; Call: inactive
Oas1a → Tnf reporter robust z-score: 0.76; fewer than 50 cells in well: enough cells in well; Call: inactive
Nat8f3 → Tnf reporter robust z-score: 1.77; fewer than 50 cells in well: enough cells in well; Call: inactive
